Reference: publication PMC6957492, “Assembly and substrate recognition of curli biogenesis system” (Nature Communications, 2020)
No constants are given. Whether binding was seen depends on the method and setting. In cells and extracts the contact can be indirect. Some results given as binding are weak or reduced against the parent protein; the word gives no strength. Sequences can lack the tags named with a protein.

Target: T1, CsgAN6 (co-purification construct) (E. coli K12)
T1 sequence: GVVPQY
Assay: pull-down; co-purification assay: linked constructs co-expressed in E. coli BL21 (DE3), membrane fraction solubilised in 1.5% DDM, Strep-Tactin column, eluted in 0.02% DDM; Coomassie blue

binding: binds
B1: CsgG (from the CsgEFG operon construct with C-terminal strep-tag II) (natural protein, E. coli K12, UniProt P0AEA2 16-277, looked up)
chain: CLTAPPKEAARPTLMPRAQSYKDLTHLPAPTGKIFVSVYNIQDETGQFKPYPASNFSTAVPQSATAMLVTALKDSRWFIPLERQGLQNLLNERKIIRAAQENGTVAINNRIPLQSLTAANIMVEGSIIGYESNVKSGGVGARYFGIGADTQYQLDQIAVNLRVVNVSTGEILSSVNTSKTILSYEVQAGVFRFIDYQRLLEGEVGYTSNEPVMLCLMSAIETGVIFLINDGIDRGLWDLQNKAERQNDILVKYRHMSVPPES
notes: also called CsgG channel; CsgG subcomplex; source: E. coli BL21 (DE3), co-expressed from the CsgEFG operon; membrane fraction solubilised in DDM/LDAO, purified (Strep-Tactin, SEC); not shown: strep-tag II, C-terminal, kept
